Measured values reported in the supplement of paper PMC8728848.
This is one part of the list.

Tests used:
Assay in all cases: glycan array binding signal (z-score within array); higher = stronger binding
Settings in all cases: glycan notation: IUPAC condensed, linker removed
[1] = biological target: Gal3S(b1-4)[Fuc(a1-3)]Glc
How it was run: (§1)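 Glycan array data were curated from 3228 arrays in the Consortium for Functional Glycomics database and kept only where the protein sequence was available. Glycan names were converted to IUPAC-condensed notation, and columns mapping to the same glycan were averaged. The binding signal is a within-array Z-score, averaged across arrays of the same protein sequence at different concentrations or buffers and across linkers. Negative Z-scores can be read as non-binding.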

[2] = biological target: Gal3S(b1-4)[Fuc(a1-3)]Glc6S
How it was run: as §1

Gal3S4S(b1-4)GlcNAc = biological target: Gal3S4S(b1-4)GlcNAc
How it was run: as §1

Gal3S6S(b1-4)GlcNAc = biological target: Gal3S6S(b1-4)GlcNAc
How it was run: as §1

Gal3S6S(b1-4)GlcNAc6S = biological target: Gal3S6S(b1-4)GlcNAc6S
How it was run: as §1

Gal4S(b1-4)GlcNAc = biological target: Gal4S(b1-4)GlcNAc
How it was run: as §1

Gal4S6S(b1-4)GlcNAc = biological target: Gal4S6S(b1-4)GlcNAc
How it was run: as §1

Gal6S(b1-4)Glc = biological target: Gal6S(b1-4)Glc
How it was run: as §1

Gal6S(b1-4)Glc6S = biological target: Gal6S(b1-4)Glc6S
How it was run: as §1

Gal6S(b1-4)GlcNAc = biological target: Gal6S(b1-4)GlcNAc
How it was run: as §1

Gal6S(b1-4)GlcNAc6S = biological target: Gal6S(b1-4)GlcNAc6S
How it was run: as §1

GalNAc(a1-3)Gal = biological target: GalNAc(a1-3)Gal
How it was run: as §1

GalNAc(a1-3)GalNAc = biological target: GalNAc(a1-3)GalNAc
How it was run: as §1

[3] = biological target: GalNAc(a1-3)GalNAc(a1-3)Gal(a1-4)Gal(b1-4)GlcNAc
How it was run: as §1

GalNAc(b1-3)Gal = biological target: GalNAc(b1-3)Gal
How it was run: as §1

[4] = biological target: GalNAc(b1-3)Gal(a1-4)Gal(b1-4)GlcNAc
How it was run: as §1

[5] = biological target: GalNAc(b1-3)Gal(a1-4)Gal(b1-4)GlcNAc(b1-3)Gal(b1-4)Glc
How it was run: as §1

[6] = biological target: GalNAc(b1-3)Gal(a1-6)Gal(b1-4)Glc
How it was run: as §1

GalNAc(b1-3)GalNAc = biological target: GalNAc(b1-3)GalNAc
How it was run: as §1

GalNAc(b1-4)GlcNAc = biological target: GalNAc(b1-4)GlcNAc
How it was run: as §1

[7] = biological target: GalNAc(b1-4)GlcNAc(b1-2)Man(a1-3)[GalNAc(b1-4)GlcNAc(b1-2)Man(a1-6)]Man(b1-4)GlcNAc(b1-4)GlcNAc
How it was run: as §1

Glc(a1-4)Glc = biological target: Glc(a1-4)Glc
How it was run: as §1

Glc(a1-6)Glc(a1-6)Glc = biological target: Glc(a1-6)Glc(a1-6)Glc
How it was run: as §1

Glc(b1-4)Glc = biological target: Glc(b1-4)Glc
How it was run: as §1

Glc(b1-6)Glc = biological target: Glc(b1-6)Glc
How it was run: as §1

GlcA(b1-3)Gal = biological target: GlcA(b1-3)Gal
How it was run: as §1

GlcA(b1-3)GlcNAc = biological target: GlcA(b1-3)GlcNAc
How it was run: as §1

GlcA(b1-6)Gal = biological target: GlcA(b1-6)Gal
How it was run: as §1

[8] = biological target: GlcNAc(a1-3)Gal(b1-4)GlcNAc
How it was run: as §1

[9] = biological target: GlcNAc(a1-4)Gal(b1-3)GlcNAc
How it was run: as §1

[10] = biological target: GlcNAc(a1-4)Gal(b1-4)GalNAc
How it was run: as §1

[11] = biological target: GlcNAc(a1-4)Gal(b1-4)GlcNAc
How it was run: as §1

[12] = biological target: GlcNAc(a1-4)Gal(b1-4)GlcNAc(b1-3)Gal(b1-4)Glc
How it was run: as §1

[13] = biological target: GlcNAc(a1-4)Gal(b1-4)GlcNAc(b1-3)Gal(b1-4)GlcNAc
How it was run: as §1

[14] = biological target: GlcNAc(a1-4)Gal(b1-4)GlcNAc(b1-3)Gal(b1-4)GlcNAc(b1-3)Gal(b1-4)GlcNAc
How it was run: as §1

[15] = biological target: GlcNAc(a1-4)Gal(b1-4)GlcNAc(b1-3)Gal(b1-4)[Fuc(a1-3)]GlcNAc(b1-3)Gal(b1-4)[Fuc(a1-3)]GlcNAc
How it was run: as §1

[16] = biological target: GlcNAc(a1-6)Gal(b1-4)GlcNAc
How it was run: as §1

[17] = biological target: GlcNAc(b1-2)Gal(b1-3)GalNAc
How it was run: as §1

[18] = biological target: GlcNAc(b1-2)Man(a1-3)[GlcNAc(b1-2)Man(a1-6)]Man(b1-4)GlcNAc(b1-4)GlcNAc
How it was run: as §1

[19] = biological target: GlcNAc(b1-2)Man(a1-3)[GlcNAc(b1-2)Man(a1-6)]Man(b1-4)GlcNAc(b1-4)[Fuc(a1-6)]GlcNAc
How it was run: as §1

[20] = biological target: GlcNAc(b1-2)[GlcNAc(b1-4)]Man(a1-3)[GlcNAc(b1-2)Man(a1-6)]Man(b1-4)GlcNAc(b1-4)GlcNAc
How it was run: as §1

GlcNAc(b1-3)Gal = biological target: GlcNAc(b1-3)Gal
How it was run: as §1

[21] = biological target: GlcNAc(b1-3)Gal(b1-3)GalNAc
How it was run: as §1

GlcNAc(b1-3)Gal(b1-4)Glc = biological target: GlcNAc(b1-3)Gal(b1-4)Glc
How it was run: as §1

[22] = biological target: GlcNAc(b1-3)Gal(b1-4)GlcNAc
How it was run: as §1

B1: CLEC9a (Mus musculus), Q8BRU4 (protein)
chain: MHAEEIYTSLQWDIPTSEASQKCQSPSKCSGAWCVVTMISCVVCMGLLATSIFLGIKFFQVSSLVLEQQERLIQQDTALVNLTQWQRKYTLEYCQALLQRSLHSGSDCSPCPHNWIQNGKSCYYVFERWEMWNISKKSCLKEGASLFQIDSKEEMEFISSIGKLKGGNKYWVGVFQDGISGSWFWEDGSSPLSDLLPAERQRSAGQICGYLKDSTLISDKCDSWKYFICEKKAFGSCI
- glycan array binding signal (z-score) [1]: 0.198
- glycan array binding signal (z-score) [2]: 0.399
- glycan array binding signal (z-score) (Gal3S4S(b1-4)GlcNAc): -0.895
- glycan array binding signal (z-score) (Gal3S6S(b1-4)GlcNAc): -0.733
- glycan array binding signal (z-score) (Gal3S6S(b1-4)GlcNAc6S): -1.05
- glycan array binding signal (z-score) (Gal4S(b1-4)GlcNAc): 1.88
- glycan array binding signal (z-score) (Gal4S6S(b1-4)GlcNAc): -1.4
- glycan array binding signal (z-score) (Gal6S(b1-4)Glc): 0.159
- glycan array binding signal (z-score) (Gal6S(b1-4)Glc6S): -1.02
- glycan array binding signal (z-score) (Gal6S(b1-4)GlcNAc): 0.237
- glycan array binding signal (z-score) (Gal6S(b1-4)GlcNAc6S): -0.445
- glycan array binding signal (z-score) (GalNAc(a1-3)Gal): -0.778
- glycan array binding signal (z-score) (GalNAc(a1-3)GalNAc): 0.006
- glycan array binding signal (z-score) [3]: -1.51
- glycan array binding signal (z-score) (GalNAc(b1-3)Gal): 0.273
- glycan array binding signal (z-score) [4]: -0.473
- glycan array binding signal (z-score) [5]: -0.553
- glycan array binding signal (z-score) [6]: -0.386
- glycan array binding signal (z-score) (GalNAc(b1-3)GalNAc): -0.705
- glycan array binding signal (z-score) (GalNAc(b1-4)GlcNAc): 0.171
- glycan array binding signal (z-score) [7]: -1.69
- glycan array binding signal (z-score) (Glc(a1-4)Glc): -0.603
- glycan array binding signal (z-score) (Glc(a1-6)Glc(a1-6)Glc): -0.171
- glycan array binding signal (z-score) (Glc(b1-4)Glc): -1.28
- glycan array binding signal (z-score) (Glc(b1-6)Glc): 0.001
- glycan array binding signal (z-score) (GlcA(b1-3)Gal): -1.69
- glycan array binding signal (z-score) (GlcA(b1-3)GlcNAc): -0.226
- glycan array binding signal (z-score) (GlcA(b1-6)Gal): -1.16
- glycan array binding signal (z-score) [8]: -1.28
- glycan array binding signal (z-score) [9]: -0.096
- glycan array binding signal (z-score) [10]: 0.796
- glycan array binding signal (z-score) [11]: 1.29
- glycan array binding signal (z-score) [12]: -1.68
- glycan array binding signal (z-score) [13]: -1.36
- glycan array binding signal (z-score) [14]: -0.359
- glycan array binding signal (z-score) [15]: 0.915
- glycan array binding signal (z-score) [16]: -0.784
- glycan array binding signal (z-score) [17]: -1.55
- glycan array binding signal (z-score) [18]: -0.834
- glycan array binding signal (z-score) [19]: 0.415
- glycan array binding signal (z-score) [20]: 4.01
- glycan array binding signal (z-score) (GlcNAc(b1-3)Gal): -0.21
- glycan array binding signal (z-score) [21]: 0.009
- glycan array binding signal (z-score) (GlcNAc(b1-3)Gal(b1-4)Glc): -0.669
- glycan array binding signal (z-score) [22]: -1.06
